Measured values published in article PMC9170038, “Crowdsourced RNA design discovers diverse, reversible, efficient, self-contained molecular switches”.
Where a protein sequence is shown, tags need not be part of it.

Target: T1, MS2 coat protein, dlFG mutant del68-81insG (Escherichia phage MS2) (UniProt P03612)
T1 sequence (looked up, limits assumed): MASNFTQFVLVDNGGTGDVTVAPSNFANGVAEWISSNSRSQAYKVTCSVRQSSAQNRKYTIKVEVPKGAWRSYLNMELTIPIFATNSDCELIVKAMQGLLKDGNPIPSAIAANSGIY
Test: binding assay
Settings: 4 mM Mg2+, RNA-MaP array, 100 mM Tris-HCl pH 7.5, 80 mM KCl, 4 mM MgCl2, 0.1 mg/mL BSA, 1 mM DTT, 0.01 mg/mL yeast tRNA, 0.01% Tween-20, protein 1.5 nM to 3 uM, 37 C (Table S3), purified recombinant protein

| Sequence | Kd (no ligand) [nM] | other results |
| --- | --- | --- |
| UGACUGGAUGGAAGGAGCGCUAAACUCCUAGUGAUGUUAGGGACAUGAGGCACAGCCUUGAAGCAGGUAGGUCGCCAUCUAGUCU [Eterna 7756304 (Same State - Arginine B)] | – | Kd (no ligand, variant of MS2 control): > 3000 nM |
| UACCGGCGGACCGAAGCUUUUUGCUUGUUUUAUACUACAACAUGAGGAUCACCCAUGUGGUGGUGGUCCGUUGUAGU [Eterna 13145 (Sensor v3, turn-off variant 2)] | – | Kd (miR-208a RNA 100 nM (AUAAGACGAGCAAAAAGCUUGU)): > 3000 nM |
| AGUAUGUACGCAGGAUAUACAUGAGGAUCACCCAUGUGGAACAGUGUAGUACUAGUUGAUCCUCAGUAGAAGGGCGGCCGAAUA [Eterna 6148107 (Exclusion NG 2)] | > 3000 | – |
| UUUAGGAGUCAAGGAUAUGCUACCGUUUCGGUAGCAGAAGGUGAUCACAUGAGGAUCACCCAUGUAUGCAUGCGUGAGCGUGCU [Eterna 5940264 (Same State NG 1)] | > 3000 | – |
| AGUUACAGGAUAGGAUAUGGCGUGACAUGGCUGCCAGAAGGAUCCUCGGGAACAUGAGGAUCACCCAUGUGACCGUGUCGAGUC [Eterna 6148515 (Same State NG 1)] | > 3000 | – |
| AAGUUUUUACAAGGAUAUCAUUUGUUUCUAAAUUCAACAUGAGGAUCACCCAUGUAACAAUGGAGUGAGAAGGUGUGUUGGCAA [Eterna 6116852 (Same State NG 2)] | > 3000 | – |
| UGCGUGGUCACAGGAUAUGCAAGAUAAACUUUAGCAGAAGGGUGAUCAAUCAGCUCAAUACCACAUGAGGAUCACCCAUGUCUA [Eterna 6148559 (Same State NG 1)] | > 3000 | – |
